# Some of the results follow.
# Protein sequences, listed by entry. Tags and fused reporters are not part of them. Lines headed by an entry give the natural chain unless they say otherwise; changes in a name come on top.
# UniProt Q8TCT9: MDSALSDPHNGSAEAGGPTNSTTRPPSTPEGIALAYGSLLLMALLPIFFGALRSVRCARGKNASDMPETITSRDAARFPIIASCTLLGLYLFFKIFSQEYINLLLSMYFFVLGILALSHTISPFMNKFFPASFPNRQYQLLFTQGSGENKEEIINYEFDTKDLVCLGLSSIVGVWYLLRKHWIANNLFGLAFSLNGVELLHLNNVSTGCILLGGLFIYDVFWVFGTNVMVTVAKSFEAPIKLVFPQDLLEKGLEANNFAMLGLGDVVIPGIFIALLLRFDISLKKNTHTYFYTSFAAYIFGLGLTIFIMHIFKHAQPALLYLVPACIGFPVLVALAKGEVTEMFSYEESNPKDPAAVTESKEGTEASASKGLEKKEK
# UniProt O75506: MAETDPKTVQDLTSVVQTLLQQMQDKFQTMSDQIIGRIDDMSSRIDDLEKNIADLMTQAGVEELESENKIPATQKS
# UniProt Q9NRV9: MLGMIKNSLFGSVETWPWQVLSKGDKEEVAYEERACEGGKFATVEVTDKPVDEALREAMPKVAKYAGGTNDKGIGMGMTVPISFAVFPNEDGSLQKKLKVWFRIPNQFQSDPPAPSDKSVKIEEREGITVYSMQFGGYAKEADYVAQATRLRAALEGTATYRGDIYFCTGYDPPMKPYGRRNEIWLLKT
# UniProt P17483: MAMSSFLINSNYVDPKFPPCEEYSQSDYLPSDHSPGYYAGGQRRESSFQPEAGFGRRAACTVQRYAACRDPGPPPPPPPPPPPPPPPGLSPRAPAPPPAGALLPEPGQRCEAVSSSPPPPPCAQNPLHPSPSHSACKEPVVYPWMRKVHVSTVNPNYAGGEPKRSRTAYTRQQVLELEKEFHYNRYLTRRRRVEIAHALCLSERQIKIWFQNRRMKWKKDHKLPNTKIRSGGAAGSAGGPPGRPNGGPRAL
# UniProt Q96FZ2: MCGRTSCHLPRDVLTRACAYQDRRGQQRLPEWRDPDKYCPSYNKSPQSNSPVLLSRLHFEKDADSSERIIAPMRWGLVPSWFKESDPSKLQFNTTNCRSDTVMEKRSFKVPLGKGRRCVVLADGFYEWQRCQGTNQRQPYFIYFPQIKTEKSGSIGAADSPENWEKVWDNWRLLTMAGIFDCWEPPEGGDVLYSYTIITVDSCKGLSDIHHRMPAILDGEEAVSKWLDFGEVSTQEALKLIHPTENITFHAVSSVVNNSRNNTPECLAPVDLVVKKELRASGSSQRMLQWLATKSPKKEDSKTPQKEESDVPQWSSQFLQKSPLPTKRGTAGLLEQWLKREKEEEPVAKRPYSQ
# UniProt Q96JB3: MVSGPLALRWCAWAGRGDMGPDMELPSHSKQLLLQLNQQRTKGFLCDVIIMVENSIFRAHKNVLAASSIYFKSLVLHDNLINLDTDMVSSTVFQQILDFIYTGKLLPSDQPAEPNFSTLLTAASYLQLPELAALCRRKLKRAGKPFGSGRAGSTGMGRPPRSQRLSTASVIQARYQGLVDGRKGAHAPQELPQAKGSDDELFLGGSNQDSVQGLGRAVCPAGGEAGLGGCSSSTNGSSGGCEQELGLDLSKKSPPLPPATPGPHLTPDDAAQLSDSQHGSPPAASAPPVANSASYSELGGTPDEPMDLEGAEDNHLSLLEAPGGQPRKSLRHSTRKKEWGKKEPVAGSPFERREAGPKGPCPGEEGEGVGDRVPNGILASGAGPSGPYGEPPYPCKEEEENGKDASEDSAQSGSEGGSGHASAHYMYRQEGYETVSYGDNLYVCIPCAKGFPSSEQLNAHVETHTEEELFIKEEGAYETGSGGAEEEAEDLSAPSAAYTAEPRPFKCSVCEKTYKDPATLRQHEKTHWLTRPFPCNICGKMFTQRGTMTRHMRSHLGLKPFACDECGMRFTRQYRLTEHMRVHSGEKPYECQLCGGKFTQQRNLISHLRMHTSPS
# UniProt Q5SSJ5: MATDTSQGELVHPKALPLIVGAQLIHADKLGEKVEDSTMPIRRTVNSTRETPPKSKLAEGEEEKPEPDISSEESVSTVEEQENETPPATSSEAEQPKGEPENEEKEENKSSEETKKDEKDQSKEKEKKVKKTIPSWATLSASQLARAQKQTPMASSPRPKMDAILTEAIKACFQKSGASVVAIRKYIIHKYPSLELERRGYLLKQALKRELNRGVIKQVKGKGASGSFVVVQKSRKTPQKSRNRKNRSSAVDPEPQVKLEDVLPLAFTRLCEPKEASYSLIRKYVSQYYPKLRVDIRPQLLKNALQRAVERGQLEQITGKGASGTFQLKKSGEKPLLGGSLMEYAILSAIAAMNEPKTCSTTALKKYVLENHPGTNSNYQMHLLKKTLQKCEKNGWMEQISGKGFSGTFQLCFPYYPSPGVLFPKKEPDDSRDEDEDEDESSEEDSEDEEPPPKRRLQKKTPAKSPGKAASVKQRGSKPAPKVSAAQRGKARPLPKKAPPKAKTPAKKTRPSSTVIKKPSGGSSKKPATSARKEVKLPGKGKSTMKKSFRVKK
# UniProt P51659: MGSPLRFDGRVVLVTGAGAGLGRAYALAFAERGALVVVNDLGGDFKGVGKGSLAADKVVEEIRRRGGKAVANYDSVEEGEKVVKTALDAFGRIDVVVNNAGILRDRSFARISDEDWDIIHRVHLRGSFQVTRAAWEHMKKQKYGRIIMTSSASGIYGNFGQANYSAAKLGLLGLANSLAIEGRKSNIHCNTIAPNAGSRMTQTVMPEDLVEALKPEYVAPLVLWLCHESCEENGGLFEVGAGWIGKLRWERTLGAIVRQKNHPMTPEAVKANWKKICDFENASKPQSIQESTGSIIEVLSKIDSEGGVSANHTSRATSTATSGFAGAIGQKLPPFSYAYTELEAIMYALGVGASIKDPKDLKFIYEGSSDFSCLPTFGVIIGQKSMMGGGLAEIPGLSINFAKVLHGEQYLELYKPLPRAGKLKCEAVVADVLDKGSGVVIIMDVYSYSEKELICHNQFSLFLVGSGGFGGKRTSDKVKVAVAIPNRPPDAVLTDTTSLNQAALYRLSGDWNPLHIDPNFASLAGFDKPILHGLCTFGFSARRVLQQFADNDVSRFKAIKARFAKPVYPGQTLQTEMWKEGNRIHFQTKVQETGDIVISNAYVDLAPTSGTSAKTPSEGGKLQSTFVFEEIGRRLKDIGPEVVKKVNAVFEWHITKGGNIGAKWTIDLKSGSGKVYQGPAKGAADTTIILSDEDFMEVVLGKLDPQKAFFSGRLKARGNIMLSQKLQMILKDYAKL
# UniProt O43390: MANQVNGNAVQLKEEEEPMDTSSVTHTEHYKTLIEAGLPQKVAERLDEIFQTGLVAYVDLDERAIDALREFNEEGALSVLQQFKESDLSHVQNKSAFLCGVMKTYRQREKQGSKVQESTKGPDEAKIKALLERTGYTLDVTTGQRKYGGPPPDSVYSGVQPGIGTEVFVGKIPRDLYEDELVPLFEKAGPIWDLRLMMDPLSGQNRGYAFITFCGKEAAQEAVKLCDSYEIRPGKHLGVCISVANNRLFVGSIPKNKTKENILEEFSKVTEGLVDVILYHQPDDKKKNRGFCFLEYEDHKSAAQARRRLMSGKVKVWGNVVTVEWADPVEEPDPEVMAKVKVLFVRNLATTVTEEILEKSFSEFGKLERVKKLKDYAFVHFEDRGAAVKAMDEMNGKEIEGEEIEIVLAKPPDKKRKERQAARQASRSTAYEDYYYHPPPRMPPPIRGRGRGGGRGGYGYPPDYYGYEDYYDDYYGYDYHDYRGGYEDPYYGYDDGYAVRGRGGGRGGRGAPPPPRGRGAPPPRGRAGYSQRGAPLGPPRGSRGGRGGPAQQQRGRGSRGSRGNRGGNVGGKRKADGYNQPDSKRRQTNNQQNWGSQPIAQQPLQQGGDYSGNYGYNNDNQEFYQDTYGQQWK
# UniProt Q99729: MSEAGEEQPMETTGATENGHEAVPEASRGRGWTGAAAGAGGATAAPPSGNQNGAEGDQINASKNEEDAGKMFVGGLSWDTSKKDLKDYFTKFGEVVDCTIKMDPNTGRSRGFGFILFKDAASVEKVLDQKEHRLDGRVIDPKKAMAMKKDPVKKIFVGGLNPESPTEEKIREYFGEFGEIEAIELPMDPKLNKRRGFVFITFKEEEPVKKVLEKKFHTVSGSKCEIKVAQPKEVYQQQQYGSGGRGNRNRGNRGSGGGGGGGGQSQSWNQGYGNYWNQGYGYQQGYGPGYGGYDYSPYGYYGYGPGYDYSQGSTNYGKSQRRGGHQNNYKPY
# UniProt Q86YM7: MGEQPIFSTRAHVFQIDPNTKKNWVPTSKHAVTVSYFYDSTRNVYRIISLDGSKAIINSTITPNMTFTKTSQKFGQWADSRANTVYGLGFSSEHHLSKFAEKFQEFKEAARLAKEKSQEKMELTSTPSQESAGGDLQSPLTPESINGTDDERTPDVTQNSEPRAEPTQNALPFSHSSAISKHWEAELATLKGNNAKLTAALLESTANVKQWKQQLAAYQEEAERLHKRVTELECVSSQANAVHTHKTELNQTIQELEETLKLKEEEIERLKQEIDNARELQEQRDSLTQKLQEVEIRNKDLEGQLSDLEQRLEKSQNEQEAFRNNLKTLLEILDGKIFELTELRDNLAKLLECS
# UniProt P54652, whole entry, looked up: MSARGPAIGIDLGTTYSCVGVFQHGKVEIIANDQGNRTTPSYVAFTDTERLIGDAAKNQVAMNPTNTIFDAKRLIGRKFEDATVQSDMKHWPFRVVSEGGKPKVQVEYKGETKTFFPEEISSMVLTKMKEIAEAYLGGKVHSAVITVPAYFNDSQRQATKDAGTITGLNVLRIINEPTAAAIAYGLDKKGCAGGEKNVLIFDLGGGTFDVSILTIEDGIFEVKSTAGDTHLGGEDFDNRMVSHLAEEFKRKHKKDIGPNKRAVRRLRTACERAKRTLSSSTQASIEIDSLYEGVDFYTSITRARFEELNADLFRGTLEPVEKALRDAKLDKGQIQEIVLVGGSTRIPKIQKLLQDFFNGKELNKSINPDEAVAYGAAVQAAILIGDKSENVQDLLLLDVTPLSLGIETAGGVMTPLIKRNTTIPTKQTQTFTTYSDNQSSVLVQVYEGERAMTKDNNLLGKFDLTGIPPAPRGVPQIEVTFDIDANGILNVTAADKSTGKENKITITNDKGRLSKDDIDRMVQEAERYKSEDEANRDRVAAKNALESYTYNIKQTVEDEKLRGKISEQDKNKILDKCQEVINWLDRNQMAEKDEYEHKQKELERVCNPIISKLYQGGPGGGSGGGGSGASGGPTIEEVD
# UniProt Q14527: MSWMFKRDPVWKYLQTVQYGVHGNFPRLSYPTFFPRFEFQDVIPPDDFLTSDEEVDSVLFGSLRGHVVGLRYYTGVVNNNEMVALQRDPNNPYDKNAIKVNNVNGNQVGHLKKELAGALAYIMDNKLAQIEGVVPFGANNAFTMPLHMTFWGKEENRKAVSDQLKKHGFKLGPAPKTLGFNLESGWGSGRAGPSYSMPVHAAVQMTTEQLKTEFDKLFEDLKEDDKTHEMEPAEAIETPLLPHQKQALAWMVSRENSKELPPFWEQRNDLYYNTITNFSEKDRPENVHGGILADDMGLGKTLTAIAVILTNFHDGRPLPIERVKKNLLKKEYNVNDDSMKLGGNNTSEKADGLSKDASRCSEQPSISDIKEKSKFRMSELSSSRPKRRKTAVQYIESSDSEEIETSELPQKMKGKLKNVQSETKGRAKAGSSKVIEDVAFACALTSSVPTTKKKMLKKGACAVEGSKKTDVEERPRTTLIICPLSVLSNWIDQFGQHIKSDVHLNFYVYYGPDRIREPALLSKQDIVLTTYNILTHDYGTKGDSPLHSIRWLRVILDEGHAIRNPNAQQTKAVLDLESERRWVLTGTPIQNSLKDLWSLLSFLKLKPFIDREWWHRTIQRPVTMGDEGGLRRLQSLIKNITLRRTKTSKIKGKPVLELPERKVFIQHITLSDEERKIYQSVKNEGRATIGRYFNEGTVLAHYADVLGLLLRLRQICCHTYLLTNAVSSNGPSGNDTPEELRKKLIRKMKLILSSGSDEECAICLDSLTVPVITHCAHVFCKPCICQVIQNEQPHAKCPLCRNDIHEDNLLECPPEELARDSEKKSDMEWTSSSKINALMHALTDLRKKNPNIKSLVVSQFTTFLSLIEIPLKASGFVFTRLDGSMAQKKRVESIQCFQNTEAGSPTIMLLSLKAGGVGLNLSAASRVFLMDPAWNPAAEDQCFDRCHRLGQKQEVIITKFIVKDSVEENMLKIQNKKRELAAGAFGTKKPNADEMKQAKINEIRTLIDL
# UniProt Q58FG1, whole entry, looked up: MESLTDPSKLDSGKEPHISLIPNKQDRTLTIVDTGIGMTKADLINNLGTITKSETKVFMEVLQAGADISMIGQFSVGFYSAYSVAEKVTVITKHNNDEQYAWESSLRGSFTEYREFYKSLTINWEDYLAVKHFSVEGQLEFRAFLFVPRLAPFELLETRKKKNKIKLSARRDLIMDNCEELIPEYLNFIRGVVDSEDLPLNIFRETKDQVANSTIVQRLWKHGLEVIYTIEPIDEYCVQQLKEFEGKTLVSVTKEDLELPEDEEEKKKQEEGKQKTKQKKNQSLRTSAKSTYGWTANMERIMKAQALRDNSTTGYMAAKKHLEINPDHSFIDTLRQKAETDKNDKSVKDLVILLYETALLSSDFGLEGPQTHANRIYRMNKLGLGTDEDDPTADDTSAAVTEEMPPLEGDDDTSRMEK
# Compound: CC1=C(SC2=C1C(=N[C@H](C3=NN=C(N32)C)CC(=O)N)C4=CC=C(C=C4)Cl)C
# Test: log2 fold change, soluble protein after heating vs DMSO (PISA); higher = thermal stabilisation; K562 lysate, 10 uM; active = over 0.2 and 3.5 SD of the protein, either way, in both replicates (recomputed)
# Summary of the method: (§1)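 Dounce homogenisation of K562 pellets in PBS pH 7.4 with 1 mM MgCl2 produced a crude extract, used at 1 mg/mL protein. Exposure to 10 μM compound lasted 30 min, and aliquots were then heated for 3 min across 48°C-58°C, pooled and brought to 0.5% NP-40 at 4°C. The supernatant after 21,000xg for 90 min was quantified by TMTpro 16plex LC-MS/MS with channel sums equalised. Duplicate values are given as log-two fold change in thermal stability relative to solvent controls.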
row,Target,log2 fold change
1,HM13 (UniProt Q8TCT9),inactive: 0.047
2,HINT1 (UniProt P49773),inactive: -0.101
3,HEMGN (UniProt Q9BXL5),inactive: -0.008
4,HSBP1 (UniProt O75506),inactive: -0.102
5,HMG20B (UniProt Q9P0W2),inactive: 0.045
6,HERC2 (UniProt O95714),inactive: -0.07
7,HPF1 (UniProt Q9NWY4),inactive: 0.024
8,HSPA1A (UniProt P0DMV8),inactive: -0.026
9,HNRNPA2B1 (UniProt P22626),inactive: 0.016
10,HPS5 (UniProt Q9UPZ3),inactive: 0.12
11,HEBP1 (UniProt Q9NRV9),inactive: -0.035
12,HNRNPDL (UniProt O14979),inactive: 0.002
13,HMGCL (UniProt P35914),inactive: -0.017
14,HNRNPUL1 (UniProt Q9BUJ2),inactive: -0.022
15,HNRNPUL2 (UniProt Q1KMD3),inactive: 0.016
16,HOXB4 (UniProt P17483),inactive: 0.118
17,HIBADH (UniProt P31937),inactive: 0.07
18,HMCES (UniProt Q96FZ2),inactive: -0.004

# Compound: CC1=C2C(=CC=C1)N=C(N(C2=O)C3=CC=CC=C3C)CN4C=NC5=C(N=CN=C54)N
# Test: as above
# Summary of the method: as §1
row,Target,log2 fold change
1,HIC2 (UniProt Q96JB3),inactive: -0.015
2,HP1BP3 (UniProt Q5SSJ5),inactive: 0.012
3,HSD17B4 (UniProt P51659),inactive: 0.001
4,HS2ST1 (UniProt Q7LGA3),inactive: -0.007
5,HIBCH (UniProt Q6NVY1),inactive: 0.026
6,HSDL1 (UniProt Q3SXM5),inactive: -0.014
7,HEATR5B (UniProt Q9P2D3),inactive: 0.028
8,HIP1R (UniProt O75146),inactive: 0
9,HNRNPR isoform 2 (UniProt O43390),inactive: -0.014
10,HNRNPAB isoform 3 (UniProt Q99729),inactive: -0.025
11,HSP90AA1 isoform 2 (UniProt P07900),inactive: -0.014
12,HOMER1 (UniProt Q86YM7),inactive: -0.023
13,HNRNPH3 (UniProt P31942),inactive: 0.078
14,HSPA2 (UniProt P54652),inactive: 0.052
15,HOOK3 (UniProt Q86VS8),inactive: 0.003
16,HEXIM1 (UniProt O94992),inactive: -0.051
17,HSP90AB1 (UniProt P08238),inactive: -0.008
18,HNRNPC (UniProt P07910),inactive: 0.01
19,HK1 isoform 2 (UniProt P19367),inactive: -0.002
20,HLTF (UniProt Q14527),inactive: -0.065

row,Target,log2 fold change
1,HIST2H2BC (UniProt Q6DN03),inactive: 0.014
2,HSP90AA4P (UniProt Q58FG1),inactive: -0.008
3,HM13 (UniProt Q8TCT9),inactive: 0.018
4,HINT1 (UniProt P49773),inactive: 0.001
5,HEMGN (UniProt Q9BXL5),inactive: -0.02
6,HSBP1 (UniProt O75506),inactive: 0.042
7,HMG20B (UniProt Q9P0W2),inactive: -0.068
8,HERC2 (UniProt O95714),inactive: -0.011
9,HPF1 (UniProt Q9NWY4),inactive: 0.031
10,HSPA1A (UniProt P0DMV8),inactive: 0.007
11,HNRNPA2B1 (UniProt P22626),inactive: -0.006
12,HPS5 (UniProt Q9UPZ3),inactive: 0.102
13,HEBP1 (UniProt Q9NRV9),inactive: -0.001
14,HNRNPDL (UniProt O14979),inactive: 0
15,HMGCL (UniProt P35914),inactive: 0.058
16,HNRNPUL1 (UniProt Q9BUJ2),inactive: -0.028
17,HNRNPUL2 (UniProt Q1KMD3),inactive: 0.015
18,HOXB4 (UniProt P17483),inactive: 0.089
19,HIBADH (UniProt P31937),inactive: 0.002
20,HMCES (UniProt Q96FZ2),inactive: 0.005
